{"source": "PubChem BioAssay AID504444", "about": "(National Center for Advancing Translational Sciences (NCATS), 2011)", "note": "The campaign covered roughly 360,000 compounds. About 7,500 (2.1%) were called active. The shares of active, inactive and inconclusive entries below differ from those in the screen. The call rests on the fitted dose curve; in most records, active means well fitted inhibition curve with a large enough effect; inconclusive means small, poorly fitted or top-dose-only effect, or effect the other way; inactive means flat fitted curve, though single readings scatter. Potencies beside an inconclusive call are fits to weak or partial responses and may not hold up. Potency means the concentration at half of the fitted maximal effect.", "data": [{"experiment": "Nrf2 qHTS screen for inhibitors; further: nearly all actives have a fitted effect of over 60% in size", "conditions": "A549 ARE-Fluc reporter, luciferase luminescence, 18-24 h; series mostly up to 46 µM", "outline": "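Quantitative HTS in A549 cells stably bearing an antioxidant response element-firefly luciferase construct. Inhibition of Nrf2-driven transcription was scored by luminescence after 18-24 h of compound exposure at 37 °C.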", "values": [{"smiles": "CC(=O)Nc1ccccc1NC(=O)C/C(C)=N/NC(=O)c1ccc([N+](=O)[O-])c(Cl)c1", "Potency": "inconclusive: 4.11 µM [activator, single point]"}, {"smiles": "O=[N+]([O-])c1cc(Cl)ccc1Nc1nc(Nc2ccc(Cl)cc2[N+](=O)[O-])nc(N2CCOCC2)n1", "Potency": "inactive"}, {"smiles": "COc1cc(C(=O)OCC(=O)Nc2sccc2C(N)=O)cc(OC)c1OC", "Potency": "inconclusive: 13 µM [falling, partial curve]"}, {"smiles": "O=C(CN1CCN(S(=O)(=O)c2ccc(F)cc2)CC1)Nc1cc(C(F)(F)F)ccc1Cl", "Potency": "inactive"}, {"smiles": "Cc1cc(C(=O)CSc2nc(N)cc(=O)[nH]2)c(C)n1CCc1ccc(F)cc1", "Potency": "inconclusive: 23.1 µM [falling, single point]"}, {"smiles": "CC(C)CCNC(=O)C1CCN(C(=O)N2CCOc3ccc(Cl)cc32)CC1", "Potency": "inactive"}, {"smiles": "COc1ccc(C(=O)Nc2ccc(-c3cc4ccccc4oc3=O)c(C)c2)cc1OC", "Potency": "active: 13 µM"}, {"smiles": "CCOCc1nnc(NC(=O)C2c3ccccc3Oc3ccccc32)s1", "Potency": "inconclusive: 13 µM [activator, partial curve, poor fit]"}, {"smiles": "CCOc1ccc(NC(=O)C2CCN(S(=O)(=O)c3ccc4c(c3)NC(=O)C(C)S4)CC2)cc1", "note": "(centres undefined)", "Potency": "active: 14.6 µM"}, {"smiles": "O=C(N/N=C/c1cc(Br)cs1)c1ccccc1[N+](=O)[O-]", "Potency": "inconclusive: 18.4 µM [falling, partial curve, poor fit]"}, {"smiles": "O=C(C1CCC(Cn2c(=O)c3sccc3n(Cc3cccc(F)c3)c2=O)CC1)N1CCCCC1", "note": "(centres undefined)", "Potency": "inconclusive: 25.9 µM [falling, single point]"}, {"smiles": "C=CCn1c(SCC(=O)Nc2ccc(F)cc2)nnc1-c1cnccn1", "Potency": "inconclusive: 29.1 µM [falling, single point]"}, {"smiles": "O=C(NCc1ccccn1)c1cc(-c2ccc(Cl)cc2)nc2ccccc12", "Potency": "inconclusive: 29.1 µM [falling, single point]"}, {"smiles": "O=C(NCCc1ccccc1)C(=O)NCC(c1cccnc1)N1CCN(c2ccccc2F)CC1", "note": "(centres undefined)", "Potency": "inactive"}, {"smiles": "COC(=O)c1ccccc1NC(=O)CN(C)S(=O)(=O)c1ccc(OC)cc1", "Potency": "inconclusive: 32.6 µM [falling, single point]"}, {"smiles": "COc1cc(C=C(c2nc3ccccc3s2)c2nc3ccccc3s2)ccc1O", "Potency": "inconclusive: 14.6 µM [activator, partial curve, poor fit]"}, {"smiles": "CC(C)=CCC/C(C)=C/CNC(=O)C[C@H]1C[C@H](C(=O)N(C(C)C)C(C)C)[C@@]2(C)c3[nH]c4cc(-c5ccco5)ccc4c3CCN2C1=O", "Potency": "active: 23.1 µM"}, {"smiles": "CCn1c(COc2cc(C)cc(C)c2)nnc1SCC(=O)N1CCN(c2ccccc2)CC1", "Potency": "inconclusive: 18.4 µM [falling, single point]"}, {"smiles": "COc1ccccc1Nc1nn2c(=O)c3ccc(C(=O)NCc4ccc(F)cc4)cc3nc2s1", "Potency": "inconclusive: 6.51 µM [falling, single point]"}, {"smiles": "CC(C)(C)c1nnc(NC(=O)C2CCN(C(=O)c3ccccc3)CC2)s1", "Potency": "inactive"}, {"smiles": "COc1ccc(NC(=O)c2c(C)oc3ccc(O)c(CN4CCC(C)CC4)c23)cc1", "Potency": "inconclusive: 23.1 µM [activator, partial curve, poor fit]"}, {"smiles": "Cn1nc(-c2ccccc2)c(C(=O)Nc2ccc(C(F)(F)F)cc2)c1Cl", "Potency": "inconclusive: 14.6 µM [falling, partial curve, poor fit]"}, {"smiles": "CCC(C)Nc1nc(-c2ccccn2)nc2ccccc12", "note": "(centres undefined)", "Potency": "inconclusive: 13 µM [falling, partial curve]"}, {"smiles": "COc1ccc(N2C(=O)/C(=C\\c3ccco3)N=C2SCC(N)=O)cc1Cl", "Potency": "inconclusive: 14.6 µM [activator, single point]"}, {"smiles": "Cc1ccccc1NC(=O)COc1ccccc1C", "Potency": "inconclusive: 13 µM [activator, single point]"}, {"smiles": "CCOC(=O)c1c(NC(=S)NC(=O)c2ccc(Cn3cc(Cl)cn3)o2)sc2c1CCCCC2", "Potency": "inconclusive: 20.6 µM [falling, single point]"}, {"smiles": "O=C(Cn1ncc(N2CCCC2)c(Cl)c1=O)c1ccc(Cl)cc1", "Potency": "inconclusive: 5.8 µM [activator, full curve]"}, {"smiles": "CC(/C=N/NC(=O)c1nnn(-c2nonc2N)c1C)=C\\c1ccccc1", "Potency": "inconclusive: 18.4 µM [activator, single point]"}, {"smiles": "CCN(C(=O)CCN1C(=O)/C(=C/c2ccccc2)SC1=S)C1CCS(=O)(=O)C1", "note": "(centres undefined)", "Potency": "inconclusive: 23.1 µM [activator, partial curve]"}, {"smiles": "C=C1CCN([C@@H](C)C(=O)OCc2ccc(C)cc2)S(=O)(=O)c2ccccc21", "Potency": "inconclusive: 23.1 µM [falling, partial curve, poor fit]"}, {"smiles": "Cc1cc(/C=C(\\C#N)C(=O)NCc2cccs2)c(C)n1-c1ccc([N+](=O)[O-])cc1", "Potency": "inconclusive: 11.6 µM [falling, partial curve, poor fit]"}, {"smiles": "Clc1ccc2nc(SCc3nnc(-c4ccccc4)o3)[nH]c2c1", "Potency": "inconclusive: 29.1 µM [falling, single point]"}, {"smiles": "CCOC(=O)c1c(NC(=O)CN(CC)CC)sc2c1CCN(C(=O)OCC)C2", "Potency": "inconclusive: 23.1 µM [falling, single point]"}, {"smiles": "COc1c(/C=N/Nc2ccc([N+](=O)[O-])cc2[N+](=O)[O-])c(C)nn1-c1ccccc1", "Potency": "inactive"}, {"smiles": "CCOC(=O)N1CCN(C(=O)c2ccc(OCC)c(OCC)c2)CC1", "Potency": "inconclusive: 18.4 µM [activator, partial curve]"}, {"smiles": "C/C(=C\\c1ccc(Br)cc1)C(=O)c1c(C)cc(C)[nH]c1=O", "Potency": "inconclusive: 25.9 µM [falling, single point]"}, {"smiles": "CC(C)Cn1c(N)c(C(=O)COC(=O)c2ccc(Br)cc2)c(=O)n(C)c1=O", "Potency": "inconclusive: 20.6 µM [falling, single point]"}, {"smiles": "N#CC1=C(N)NC(SCC(=O)c2ccc(Cl)cc2)=C(C#N)C12CCCC2", "Potency": "inconclusive: 32.6 µM [falling, single point]"}, {"smiles": "CCOC(=O)C1CCN(C(=S)Nc2ccc(S(N)(=O)=O)cc2)CC1", "Potency": "inconclusive: 8.2 µM [falling, partial curve]"}]}]}
